{"source": "PubChem BioAssay AID1159597 (NIAID, 2016)", "purpose": "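Which TLR pathway components are needed for LPS-driven TNF promoter activity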", "cells": "human THP-1 B5 reporter clone (monocytic leukaemia line), PMA-differentiated to macrophage-like cells", "knock-down reagent": "single siRNA against human genes", "time to read-out": "LPS for 4 h before read-out; assayed 48 to 72 h after siRNA transfection", "treatment": "LPS (Salmonella minnesota R595) for 4 h; concentration not given", "measurement": "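After 4 h LPS, firefly TNF promoter luciferase over renilla, as a plate median/MAD robust z-score averaged across replicates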", "scale": "TNF reporter z-score: higher = stronger TNF promoter activity after LPS", "call rule": "In these data the active calls have TNF reporter z-score, replicate mean at about -1.5 or lower, or at about 1.53 or higher", "meaning of the calls": "active = clear shift in reporter, either direction; inactive = little shift in reporter", "note": "The deposit covers 756 reagents; this is a random part of them. 140 of them (19%) count as active. 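Calls mark clear shifts in either direction, lowered or raised; calls are per siRNA, gene-level medians over six siRNAs not deposited.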 Reagents against one gene are numbered here. Reagent sequences are not shown. Not stated in the record: the amount of reagent."}
{"target": "DUSP2", "siRNA no.": 1, "TNF reporter z-score, replicate mean": -0.521, "outcome": "inactive"}
{"target": "DUSP2", "siRNA no.": 2, "TNF reporter z-score, replicate mean": 0.0288, "outcome": "inactive"}
{"target": "DUSP2", "siRNA no.": 3, "TNF reporter z-score, replicate mean": -3.52, "outcome": "active"}
{"target": "DUSP2", "siRNA no.": 4, "TNF reporter z-score, replicate mean": -0.115, "outcome": "inactive"}
{"target": "DUSP2", "siRNA no.": 5, "TNF reporter z-score, replicate mean": -0.196, "outcome": "inactive"}
{"target": "DUSP2", "siRNA no.": 6, "TNF reporter z-score, replicate mean": -0.276, "outcome": "inactive"}
{"target": "JUN", "siRNA no.": 1, "TNF reporter z-score, replicate mean": -3.29, "outcome": "active"}
{"target": "JUN", "siRNA no.": 2, "TNF reporter z-score, replicate mean": -1.39, "outcome": "inactive"}
{"target": "JUN", "siRNA no.": 3, "TNF reporter z-score, replicate mean": -0.697, "outcome": "inactive"}
{"target": "JUN", "siRNA no.": 4, "TNF reporter z-score, replicate mean": -1.08, "outcome": "inactive"}
{"target": "JUN", "siRNA no.": 5, "TNF reporter z-score, replicate mean": -0.415, "outcome": "inactive"}
{"target": "JUN", "siRNA no.": 6, "TNF reporter z-score, replicate mean": -1.55, "outcome": "active"}
{"target": "PIK3CD", "siRNA no.": 1, "TNF reporter z-score, replicate mean": -1.22, "outcome": "inactive"}
{"target": "PIK3CD", "siRNA no.": 2, "TNF reporter z-score, replicate mean": -0.0561, "outcome": "inactive"}
{"target": "PIK3CD", "siRNA no.": 3, "TNF reporter z-score, replicate mean": -0.216, "outcome": "inactive"}
{"target": "PIK3CD", "siRNA no.": 4, "TNF reporter z-score, replicate mean": -2.73, "outcome": "active"}
{"target": "PIK3CD", "siRNA no.": 5, "TNF reporter z-score, replicate mean": 0.0169, "outcome": "inactive"}
{"target": "PIK3CD", "siRNA no.": 6, "TNF reporter z-score, replicate mean": -1.71, "outcome": "active"}

Copied from the list.
Value for DUSP2 #1 in “outcome”: inactive
PIK3CD #6, outcome → active
Under “outcome”, JUN #5 reads inactive
Under “TNF reporter z-score, replicate mean”, DUSP2 #4 shows -0.115
Entry of PIK3CD #5 in “TNF reporter z-score, replicate mean”: 0.0169
Entry for DUSP2 #6 in “TNF reporter z-score, replicate mean”: -0.276

The listing continues:
{"target": "UBE2V1", "siRNA no.": 1, "TNF reporter z-score, replicate mean": 0.0622, "outcome": "inactive"}
{"target": "UBE2V1", "siRNA no.": 2, "TNF reporter z-score, replicate mean": -0.557, "outcome": "inactive"}
{"target": "UBE2V1", "siRNA no.": 3, "TNF reporter z-score, replicate mean": 1.23, "outcome": "inactive"}
{"target": "UBE2V1", "siRNA no.": 4, "TNF reporter z-score, replicate mean": -0.0728, "outcome": "inactive"}
{"target": "UBE2V1", "siRNA no.": 5, "TNF reporter z-score, replicate mean": -1.09, "outcome": "inactive"}
{"target": "UBE2V1", "siRNA no.": 6, "TNF reporter z-score, replicate mean": 0.0244, "outcome": "inactive"}
{"target": "NFKBIB", "siRNA no.": 1, "TNF reporter z-score, replicate mean": -1.04, "outcome": "inactive"}
{"target": "NFKBIB", "siRNA no.": 2, "TNF reporter z-score, replicate mean": -0.31, "outcome": "inactive"}
{"target": "NFKBIB", "siRNA no.": 3, "TNF reporter z-score, replicate mean": 0.0338, "outcome": "inactive"}
{"target": "NFKBIB", "siRNA no.": 4, "TNF reporter z-score, replicate mean": -1.66, "outcome": "active"}
{"target": "NFKBIB", "siRNA no.": 5, "TNF reporter z-score, replicate mean": -0.327, "outcome": "inactive"}
{"target": "NFKBIB", "siRNA no.": 6, "TNF reporter z-score, replicate mean": -0.607, "outcome": "inactive"}
{"target": "CXCL9", "siRNA no.": 1, "TNF reporter z-score, replicate mean": -1.95, "outcome": "active"}
{"target": "CXCL9", "siRNA no.": 2, "TNF reporter z-score, replicate mean": -0.778, "outcome": "inactive"}
{"target": "CXCL9", "siRNA no.": 3, "TNF reporter z-score, replicate mean": 0.562, "outcome": "inactive"}
{"target": "CXCL9", "siRNA no.": 4, "TNF reporter z-score, replicate mean": -2.63, "outcome": "active"}
{"target": "CXCL9", "siRNA no.": 5, "TNF reporter z-score, replicate mean": -0.385, "outcome": "inactive"}
{"target": "CXCL9", "siRNA no.": 6, "TNF reporter z-score, replicate mean": 0.616, "outcome": "inactive"}
{"target": "IRF5", "siRNA no.": 1, "TNF reporter z-score, replicate mean": -4.09, "outcome": "active"}
{"target": "IRF5", "siRNA no.": 2, "TNF reporter z-score, replicate mean": -0.413, "outcome": "inactive"}
{"target": "IRF5", "siRNA no.": 3, "TNF reporter z-score, replicate mean": 0.549, "outcome": "inactive"}
{"target": "IRF5", "siRNA no.": 4, "TNF reporter z-score, replicate mean": -0.0109, "outcome": "inactive"}
{"target": "IRF5", "siRNA no.": 5, "TNF reporter z-score, replicate mean": -0.978, "outcome": "inactive"}
{"target": "IRF5", "siRNA no.": 6, "TNF reporter z-score, replicate mean": 0.549, "outcome": "inactive"}
{"target": "IL1B", "siRNA no.": 1, "TNF reporter z-score, replicate mean": 0.123, "outcome": "inactive"}
{"target": "IL1B", "siRNA no.": 2, "TNF reporter z-score, replicate mean": -1.18, "outcome": "inactive"}
{"target": "IL1B", "siRNA no.": 3, "TNF reporter z-score, replicate mean": -0.815, "outcome": "inactive"}
{"target": "IL1B", "siRNA no.": 4, "TNF reporter z-score, replicate mean": -1.36, "outcome": "inactive"}
{"target": "IL1B", "siRNA no.": 5, "TNF reporter z-score, replicate mean": -1.07, "outcome": "inactive"}
{"target": "IL1B", "siRNA no.": 6, "TNF reporter z-score, replicate mean": -1.26, "outcome": "inactive"}
